This is an account of results in the supplement of paper PMC12819154, “High-throughput peptide-centric local stability assay extends protein–ligand identification to membrane proteins, tissues and bacteria” (Nature Structural & Molecular Biology, 2025).

Sequences of proteins named here, by UniProt entry; tags and fusion partners are left off. A change or cut given only in a name is not applied to a line headed by its entry.
UniProt Q0P678: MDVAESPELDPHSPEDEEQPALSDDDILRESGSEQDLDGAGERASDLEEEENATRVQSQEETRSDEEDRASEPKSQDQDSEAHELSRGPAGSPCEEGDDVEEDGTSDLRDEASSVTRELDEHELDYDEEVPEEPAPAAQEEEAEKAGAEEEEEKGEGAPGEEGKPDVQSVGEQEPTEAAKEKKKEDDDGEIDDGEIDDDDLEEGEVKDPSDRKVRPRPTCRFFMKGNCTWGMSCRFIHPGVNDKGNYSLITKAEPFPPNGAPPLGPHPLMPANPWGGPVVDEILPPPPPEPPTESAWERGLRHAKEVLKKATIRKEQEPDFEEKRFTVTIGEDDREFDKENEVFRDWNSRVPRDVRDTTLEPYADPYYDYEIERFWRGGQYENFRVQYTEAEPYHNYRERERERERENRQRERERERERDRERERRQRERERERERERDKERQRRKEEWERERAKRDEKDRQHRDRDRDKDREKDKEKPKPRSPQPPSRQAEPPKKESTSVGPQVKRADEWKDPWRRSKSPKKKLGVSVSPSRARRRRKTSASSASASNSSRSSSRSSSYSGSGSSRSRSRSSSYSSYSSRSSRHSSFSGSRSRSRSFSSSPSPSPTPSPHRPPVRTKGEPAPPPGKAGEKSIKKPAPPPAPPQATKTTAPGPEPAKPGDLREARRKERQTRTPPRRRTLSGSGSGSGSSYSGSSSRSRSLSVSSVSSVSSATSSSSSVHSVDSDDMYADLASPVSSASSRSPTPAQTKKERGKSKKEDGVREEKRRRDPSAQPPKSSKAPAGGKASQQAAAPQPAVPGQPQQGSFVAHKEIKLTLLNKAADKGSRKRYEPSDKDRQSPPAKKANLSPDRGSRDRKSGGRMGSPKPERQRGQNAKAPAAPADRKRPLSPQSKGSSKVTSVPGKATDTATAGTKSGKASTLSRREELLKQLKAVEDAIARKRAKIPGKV
UniProt Q0KL01: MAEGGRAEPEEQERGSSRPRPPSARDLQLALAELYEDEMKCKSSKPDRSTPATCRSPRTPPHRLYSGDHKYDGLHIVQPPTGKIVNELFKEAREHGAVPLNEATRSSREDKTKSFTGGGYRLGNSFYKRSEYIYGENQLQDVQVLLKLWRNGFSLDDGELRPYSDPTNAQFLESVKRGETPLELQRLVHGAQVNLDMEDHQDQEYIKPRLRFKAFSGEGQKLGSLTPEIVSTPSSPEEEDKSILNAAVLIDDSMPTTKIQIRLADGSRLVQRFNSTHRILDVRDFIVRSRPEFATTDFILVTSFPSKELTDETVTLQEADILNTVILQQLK
UniProt Q3TDK6, whole entry: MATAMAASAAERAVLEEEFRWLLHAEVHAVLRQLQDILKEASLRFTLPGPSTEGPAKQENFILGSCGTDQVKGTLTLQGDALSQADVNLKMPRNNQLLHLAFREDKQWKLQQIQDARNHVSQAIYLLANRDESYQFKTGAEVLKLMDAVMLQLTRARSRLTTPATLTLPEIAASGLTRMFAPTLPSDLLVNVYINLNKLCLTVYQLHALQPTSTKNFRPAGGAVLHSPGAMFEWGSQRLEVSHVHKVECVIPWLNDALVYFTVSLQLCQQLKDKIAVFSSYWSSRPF
UniProt Q2YDW7: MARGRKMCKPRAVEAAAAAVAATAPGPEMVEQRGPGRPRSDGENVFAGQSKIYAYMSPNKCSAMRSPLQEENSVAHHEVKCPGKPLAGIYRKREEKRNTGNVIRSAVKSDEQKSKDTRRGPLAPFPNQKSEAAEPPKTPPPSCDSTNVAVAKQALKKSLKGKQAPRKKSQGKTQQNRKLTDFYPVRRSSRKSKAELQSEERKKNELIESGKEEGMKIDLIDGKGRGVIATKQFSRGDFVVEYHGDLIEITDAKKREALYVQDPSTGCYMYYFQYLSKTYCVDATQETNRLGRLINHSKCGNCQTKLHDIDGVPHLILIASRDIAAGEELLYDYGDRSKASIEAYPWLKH
UniProt Q3TIU4: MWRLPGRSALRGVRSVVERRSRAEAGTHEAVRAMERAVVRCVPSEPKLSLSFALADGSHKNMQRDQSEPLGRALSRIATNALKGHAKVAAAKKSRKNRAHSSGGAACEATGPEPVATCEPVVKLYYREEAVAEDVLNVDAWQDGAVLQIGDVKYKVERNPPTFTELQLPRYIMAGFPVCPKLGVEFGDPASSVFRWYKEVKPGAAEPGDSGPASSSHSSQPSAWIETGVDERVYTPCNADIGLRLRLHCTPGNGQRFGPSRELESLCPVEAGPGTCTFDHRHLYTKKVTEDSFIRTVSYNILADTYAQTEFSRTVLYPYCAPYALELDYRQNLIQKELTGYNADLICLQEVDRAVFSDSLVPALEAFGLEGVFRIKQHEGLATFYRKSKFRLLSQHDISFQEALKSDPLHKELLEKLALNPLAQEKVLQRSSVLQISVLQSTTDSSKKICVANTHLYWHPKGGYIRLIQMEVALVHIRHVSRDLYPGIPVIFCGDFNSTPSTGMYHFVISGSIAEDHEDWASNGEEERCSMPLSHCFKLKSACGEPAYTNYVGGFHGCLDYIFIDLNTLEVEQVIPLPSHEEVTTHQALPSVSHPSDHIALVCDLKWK

The other results are listed elsewhere or left out. Most values lie at the level of the controls, where differences are scatter.

Compound in this assay: CN[C@@H]1C[C@H]2O[C@@](C)([C@@H]1OC)n1c3ccccc3c3c4c(c5c6ccccc6n2c5c31)C(=O)NC4 [staurosporine]
Briefly: log2 fold change of tryptic peptide abundance, ligand vs vehicle (limited proteolysis) (log2 ratio); higher = more trypsin-susceptible (destabilized). As to conditions: ligand concentration: 20 uM; sample: mouse liver crude lysate; replicate design: treated separately.
Consider “UniProt Q0P678 (peptide sequence: VQYTEAEPYHNYR, peptide start residue: 386)”, for which the log2 fold change is -0.144.
As for “UniProt Q0KL01 (peptide sequence: EHGAVPLNEATR, peptide start residue: 94)”, the log2 fold change was -0.123.
“UniProt Q3TDK6 (peptide sequence: NFRPAGGAVLHSPGAMFEWGSQR, peptide start residue: 216)”: the log2 fold change is 0.272.
As for “UniProt Q2YDW7 (peptide sequence: GVIATKQFSR, peptide start residue: 226)”, the figure is 0.0654; as for “UniProt Q3TIU4 (peptide sequence: LALNPLAQEK, peptide start residue: 417)”, 0.324.
